# Results published in patent US20230404963A1, “COMBINATIONS OF METAP2 INHIBITORS AND CD4/6 INHIBITORS FOR THE TREATMENT OF CANCER” (SynDevRx, Inc., priority 2020, published 2023).
# For some of these results: At least one compound was matched to its structure with a doubt left. Some entries share one result that the patent states for a list of compounds.
# Tests used:
# [1] = system: MCF-7 tumors; assay: Expression levels of proteins in tumor samples collected at the conclusion of the study; type: in vivo, mice
# [2] = Neutrophils in whole blood (complete blood count) at the conclusion of the study; type: in vivo, mice; conditions: each agent alone
# [3] = system: MCF-7 tumors; assay: RNA sequencing / GSEA gene expression in tumor samples from the mice of Example 1; type: in vivo; conditions: tumor samples at conclusion of study; Compound 1 with the higher dose of palbociclib; Compound 1 alone; lower dose of palbociclib alone
smiles,measurement,setting,value
CC(=O)c1c(C)c2cnc(Nc3ccc(N4CCNCC4)cn3)nc2n(C2CCCC2)c1=O [palbociclib],expression level of PHGDH protein,"[1]; Compound 1 8 mg/kg SC, palbociclib PO, or both",decrease PHGDH protein
same,expression level of ERα-55 kDa protein,[1]; palbociclib 20 mg/kg PO alone or with Compound 1 8 mg/kg SC,decrease in ERα-55 kDa protein
same,suppression of levels of neutrophils relative to Vehicle-treated mice,[2],30-40%
same,expression level of MTHFD2,[3],an increase in the expression of MTHFD2
